PubChem BioAssay AID445 (National Center for Advancing Translational Sciences (NCATS), 2006)
Some of the results follow. The main result of the screen is listed elsewhere. These columns were measured beside it and carry no call. Most of these compounds were active or inconclusive in the main read-out, so they are no random draw. Potencies come from curve fits of mixed quality, noted in brackets.

assay: IkB Signaling; conditions: ABC-DLBCL IkBa-CBG/CBR dual luciferase ratio (green luciferase fused to IkBa over red control in OCI-Ly3 lymphoma cells), 4 h; measured here: control luc red channel unless noted
Summary of the method: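 In this assay, an IκBα–CBG68 fusion accumulates when IKK-driven degradation is blocked; native CBR normalizes for cell number. OCI-Ly3 cells were treated 4 h with compound and doxycycline, then green and red light read after Chroma-Glo addition.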

Row | SMILES | AC50
1 | c1ccc(-c2noc(-c3cccc4ccccc34)n2)nc1 | 12.6 µM [falling, partial curve]
2 | N=C1Sc2ccccc2C2=NCCCN12 | 25.1 µM [rising, partial curve, poor fit] [measured here: IkB-luc green channel]
3 | COc1ccc(N(C(=O)c2ccccc2C)S(=O)(=O)c2ccc(Cl)cc2)cc1 | 3.16 µM [falling, full curve, poor fit]
4 | Nc1ncc(S(=O)(=O)NCc2ccccc2)cn1 | 0.01 µM [rising, full curve, poor fit]
5 | COc1cc(S(=O)(=O)NCCc2c(C)[nH]c3ccc(C)cc23)ccc1Br | 15.8 µM [falling, partial curve]
6 | O=C(NCCc1nc2ccccc2n1Cc1ccccc1F)c1ccc(F)cc1 | 0.316 µM [falling, partial curve]
7 | O=C(C1CCC1)N1CCCc2cc(S(=O)(=O)N3CCN(c4cccc(Cl)c4)CC3)ccc21 | 12.6 µM [falling, partial curve, poor fit]
8 | CCOCc1cc(CN2CCN(c3cccc(C(F)(F)F)c3)CC2)c(O)c2ncccc12 | 5.01 µM [falling, partial curve]
9 | c1ccc(-c2nnc3n2NC(c2ccc4c(c2)OCO4)S3)cc1 (stereo not drawn) | 7.94 µM [falling, partial curve]
10 | COc1ccc(OC)c(S(=O)(=O)Nc2ccc(O)c3ccccc23)c1 | 2 µM [falling, full curve]
11 | COc1ccccc1NC(=O)c1cc2ccc(O)cc2o/c1=N\O | 7.94 µM [falling, partial curve]
12 | CCOc1ccccc1NC(=O)COC(=O)CC(C)(C)CC1=NS(=O)(=O)c2ccccc2N1 | 20 µM [falling, partial curve]
13 | Cc1onc(-c2ccccc2Cl)c1C(=O)Oc1ccc(Cl)cc1Cl | 39.8 µM [falling, single point]
14 | COc1ccc(CCN2C(=O)c3[nH]nc(-c4ccccc4O)c3C2c2cccc(O)c2)cc1OC (stereo not drawn) | 25.1 µM [falling, single point]
15 | Cc1csc(NC(=O)Nc2ccc(Cl)cc2)n1 | 10 µM [falling, partial curve]
16 | CCOC(=O)N1CCc2c(sc3c2c(=O)n(Cc2ccccc2)c(=O)n3CC(=O)Nc2ccc(F)cc2)C1 | 31.6 µM [falling, partial curve]
17 | O=C(Nc1cc(Cl)cc(Cl)c1)c1cc(S(=O)(=O)NC2CCCC2)ccc1F | 15.8 µM [falling, partial curve]
18 | Cc1cccc(N2CCN(C(=O)C3CCN(C(=O)c4cc5sccc5n4C)CC3)CC2C)c1 (stereo not drawn) | 20 µM [falling, partial curve]

Arranged by SMILES length (rising): part of the list above.
Row | SMILES | AC50
15 | Cc1csc(NC(=O)Nc2ccc(Cl)cc2)n1 | 10 µM [falling, partial curve]
5 | COc1cc(S(=O)(=O)NCCc2c(C)[nH]c3ccc(C)cc23)ccc1Br | 15.8 µM [falling, partial curve]
16 | CCOC(=O)N1CCc2c(sc3c2c(=O)n(Cc2ccccc2)c(=O)n3CC(=O)Nc2ccc(F)cc2)C1 | 31.6 µM [falling, partial curve]
